Results published in patent EP4793360A2.
Changes are numbered by the printed parent chain. No constants are given. Whether binding was seen depends on the method and setting. Some entries that bind do so weakly or less than the wild type. One block for each binder: values may come before it.

The chains behind the UniProt entries cited, without tags or fusion partners. Residues count along the entry.
UniProt P00742, residues 41-488: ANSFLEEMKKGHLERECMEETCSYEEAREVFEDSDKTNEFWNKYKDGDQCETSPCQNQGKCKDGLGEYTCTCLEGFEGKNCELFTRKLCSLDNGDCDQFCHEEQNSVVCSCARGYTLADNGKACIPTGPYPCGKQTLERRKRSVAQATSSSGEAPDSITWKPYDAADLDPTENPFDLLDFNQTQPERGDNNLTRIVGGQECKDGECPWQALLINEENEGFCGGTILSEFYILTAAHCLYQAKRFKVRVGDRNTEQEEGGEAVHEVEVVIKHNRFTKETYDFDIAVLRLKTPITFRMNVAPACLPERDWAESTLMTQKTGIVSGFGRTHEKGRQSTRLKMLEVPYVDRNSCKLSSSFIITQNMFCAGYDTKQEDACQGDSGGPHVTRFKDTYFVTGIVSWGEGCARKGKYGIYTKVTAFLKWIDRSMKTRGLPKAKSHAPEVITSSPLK

Assays:
[1] = target: Factor X (Enzyme Research Laboratories) (UniProt P00742); experiment: ELISA, Factor X coated on plate (Fig. 6 legend)
[2] = target: Factor X (Enzyme Research Laboratories) (UniProt P00742); experiment: ELISA, Factor X coated at 1 µg/ml, absorbance at 405 nm

binding [1]: binds | binding [2]: binds
B1: humanized B26 antibody hB26-F123e4 (antibody, human IgG4, V domains shown)
VH: QVQLVQSGPDVKKPGASVKVSCKASGYMFSDNNMDWARQAPGQGLEWMGDINTKSGGSIYNQKFKGRVIMTIDKSTGTAYMELRSLRSDDTAIYYCARRRSYGYYFDYWGQGTLVTVSS
VL: DIVLTQSQKFMSTSVGDRVSITCKASQNVGTAVAWYQQKPGQSPKALIYSASYRYSGVPDRFTGSGSGTDFTLTISNVQSEDLAEYFCQQYNSYPLTFGAGTKLEIKR
modifications: N-terminal glutamine assumed to be pyroglutamylated (Pyr(Q) at H1)

binding [1]: binds | binding [2]: binds
B2: hB26-p15 (modified form of humanized B26 antibody) (antibody, V domains shown)
VH: B1 VH with Q39K, Q43K, Q111R
VL: B1 VL
modifications: N-terminal glutamine assumed to be pyroglutamylated (Pyr(Q) at H1)
